The record followed here is article PMC9931111.

Construct, isoform or probe ends are uncertain for at least one entry. Where a protein sequence is shown, tags need not be part of it.

In data set [1] the target is T1, NIN C-terminal half, His-tagged (Lotus japonicus) (UniProt Q9S7B1).
T1 sequence (looked up, limits assumed): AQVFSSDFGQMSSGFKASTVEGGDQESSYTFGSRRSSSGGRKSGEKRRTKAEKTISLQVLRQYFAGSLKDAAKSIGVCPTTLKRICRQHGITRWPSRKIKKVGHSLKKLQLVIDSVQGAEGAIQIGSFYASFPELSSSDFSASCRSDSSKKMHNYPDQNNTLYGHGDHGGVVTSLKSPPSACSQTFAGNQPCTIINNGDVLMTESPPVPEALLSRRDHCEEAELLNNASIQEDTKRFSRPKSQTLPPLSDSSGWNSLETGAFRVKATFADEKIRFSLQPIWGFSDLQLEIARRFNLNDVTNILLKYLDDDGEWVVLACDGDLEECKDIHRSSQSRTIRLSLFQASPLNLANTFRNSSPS
In words: EMSA. To be noted: 1 nM Cy5 DNA; 20 mM Tris pH 7.5, 5% glycerol, 10 mM MgCl2, 0.25 mM DTT, 0.8 ug BSA, 1 ug salmon sperm DNA in 20 uL; 30 C 20 min; 6% native PAGE in TBE at 4 C; recombinant protein; protein details: C-terminal His; label: 5' Cy5; probe letters rebuilt from the primers and the genome. Background: Mobility shift assays separate free from complexed probe on a gel.

In data set [2] the target is T1, NIN C-terminal half, His-tagged (Lotus japonicus). In words: competition with a labelled probe. To be noted: unlabeled self competitor, 2- and 10-fold; 1 nM Cy5 DNA; 20 mM Tris pH 7.5, 5% glycerol, 10 mM MgCl2, 0.25 mM DTT, 0.8 ug BSA, 1 ug salmon sperm DNA in 20 uL; 30 C 20 min; 6% native PAGE in TBE at 4 C; recombinant protein; protein details: C-terminal His; label: 5' Cy5; probe letters rebuilt from the primers and the genome.

Take “AGCCAGTGGCGATAAGATACAACTATGTGCCATAAACTATAATTGAAAAATTTAAAATGAGCATGCATAATTAGATCATGTAAATTAAACTTAAAAATAACTTAATAGTTTACATTAACTTATTATAACTGATGTTCATAACAGGATCATAATCCTTTCAATTGCTAAAAACATTAACCATGTGAATTAAAGTTTCATCACCAGTTTAACCTTATCGCCACTGGCT (double strand) [RPG promoter S2]”: the binding result in data set [1] and in data set [2] was “binds” each time.
Regarding “AGCCAGTGGCGATAAGTAGACTGCAATAACTTCAGAAGGGGACGTAACTTTTGATTTGTGGTGTTCATGCGGTCCAATTATACAAGTTTTGGTCATTTGGGTAAGTTTCTTCTTCTTCCTTTTCAGTTCCTTGAAAGATCGAGGATTATAAGGAAGACAAATTCATAAACTGCATTAAAAAAGTTTTATACTCAGAATTGTGTGTTGTAAAGGACTTATCGCCACTGGCT (double strand) [RPG promoter S1]”, the binding result in data set [1] and in data set [2] was “binds” throughout.
